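Malaria parasite (P. falciparum) lines kept in red blood cells; parasite DNA is measured by SYBR Green fluorescence after lysis, 72 h after compound addition.
Each compound was titrated across a series from about 0.000037 to 29 µM.
The number is the fitted AC50, the concentration giving a half-maximal change in signal; a lower value means higher potency, whether the curve shows a decrease or an increase.
Calls follow the curve class and fit quality: every row here is inconclusive, covering signal-raising curves and weak, poorly fitted, partial or highest-dose-only inhibition curves.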

Values are in µM.
All entries here are filed as inconclusive.
Only part of the assay is shown, chiefly results filed as inconclusive.
A potency from a partial, single-point or poor curve is only a rough figure.

| structure | setting | fitted potency (µM) | curve |
|---|---|---|---|
| `CC1CCC(C(C)C)C(OC(=O)c2ccccc2N)C1` (stereo unspecified) | DIV14 | 8.492 | inhibitor, single point |
| `CC1CCC(C(C)C)C(OC(=O)c2ccccc2N)C1` (stereo unspecified) | CP237 | 10 | inhibitor, single point |
| `CC1CCC(C(C)C)C(OC(=O)c2ccccc2N)C1` (stereo unspecified) | P94_40 | 11.22 | inhibitor, single point |
| `CC1CCC(C(C)C)C(OC(=O)c2ccccc2N)C1` (stereo unspecified) | GB4 | 19.01 | inhibitor, single point |
| `CC1CCC(C(C)C)C(OC(=O)c2ccccc2N)C1` (stereo unspecified) | 7G8 | 10 | inhibitor, single point |
| `Clc1ccc2c(c1)C(N1CCNCC1)=Nc1ccccc1O2` | CP217 | 11.22 | inhibitor, single point |
| `Clc1ccc2c(c1)C(N1CCNCC1)=Nc1ccccc1O2` | HB3 | 10 | inhibitor, single point |
| `Clc1ccc2c(c1)C(N1CCNCC1)=Nc1ccccc1O2` | CP238 | 11.22 | inhibitor, single point |
| `Clc1ccc2c(c1)C(N1CCNCC1)=Nc1ccccc1O2` | CP260 | 7.943 | inhibitor, partial curve |
| `Clc1ccc2c(c1)C(N1CCNCC1)=Nc1ccccc1O2` | CP286 | 10 | inhibitor, single point |
| `Clc1ccc2c(c1)C(N1CCNCC1)=Nc1ccccc1O2` | AS120 | 8.912 | inhibitor, single point |
| `Clc1ccc2c(c1)C(N1CCNCC1)=Nc1ccccc1O2` | CP256 | 15.85 | inhibitor, single point |
| `Clc1ccc2c(c1)C(N1CCNCC1)=Nc1ccccc1O2` | PAD | 17.78 | inhibitor, single point |
| `Clc1ccc2c(c1)C(N1CCNCC1)=Nc1ccccc1O2` | CP215 | 21.33 | inhibitor, single point |
| `Clc1ccc2c(c1)C(N1CCNCC1)=Nc1ccccc1O2` | CP247 | 12.59 | inhibitor, single point |
| `Clc1ccc2c(c1)C(N1CCNCC1)=Nc1ccccc1O2` | TAB113 | 17.78 | inhibitor, single point |
| `Clc1ccc2c(c1)C(N1CCNCC1)=Nc1ccccc1O2` | DIV14 | 5.358 | inhibitor, partial curve |
| `Clc1ccc2c(c1)C(N1CCNCC1)=Nc1ccccc1O2` | N140 | 10 | inhibitor, single point |
| `Clc1ccc2c(c1)C(N1CCNCC1)=Nc1ccccc1O2` | 7G8 | 10 | inhibitor, single point |
| `Clc1ccc2c(c1)C(N1CCNCC1)=Nc1ccccc1O2` | TAB109 | 17.78 | inhibitor, single point |
| `Clc1ccc2c(c1)C(N1CCNCC1)=Nc1ccccc1O2` | ECU | 10 | inhibitor, single point |
| `Clc1ccc2c(c1)C(N1CCNCC1)=Nc1ccccc1O2` | AA1029 | 10 | inhibitor, single point |
| `Clc1ccc2c(c1)C(N1CCNCC1)=Nc1ccccc1O2` | TAB165 | 11.22 | inhibitor, single point |
| `Clc1ccc2c(c1)C(N1CCNCC1)=Nc1ccccc1O2` | parasite line B | 17.78 | inhibitor, single point |
| `Clc1ccc2c(c1)C(N1CCNCC1)=Nc1ccccc1O2` | ATS95 | 10 | inhibitor, single point |
| `Clc1ccc2c(c1)C(N1CCNCC1)=Nc1ccccc1O2` | ICS | 10 | inhibitor, single point |
| `Clc1ccc2c(c1)C(N1CCNCC1)=Nc1ccccc1O2` | SC27B | 17.78 | inhibitor, single point |
| `Clc1ccc2c(c1)C(N1CCNCC1)=Nc1ccccc1O2` | CP297 | 15.1 | inhibitor, single point |
| `Clc1ccc2c(c1)C(N1CCNCC1)=Nc1ccccc1O2` | CP194 | 0.4775 | inhibitor, full curve, poor fit |
| `Clc1ccc2c(c1)C(N1CCNCC1)=Nc1ccccc1O2` | P94_40 | 11.22 | inhibitor, single point |
| `Clc1ccc2c(c1)C(N1CCNCC1)=Nc1ccccc1O2` | CP265 | 17.78 | inhibitor, single point |
| `Clc1ccc2c(c1)C(N1CCNCC1)=Nc1ccccc1O2` | GB4 | 7.569 | inhibitor, partial curve |
| `Clc1ccc2c(c1)C(N1CCNCC1)=Nc1ccccc1O2` | P93_24 | 8.912 | inhibitor, partial curve |
| `Clc1ccc2c(c1)C(N1CCNCC1)=Nc1ccccc1O2` | Dd2 | 11.22 | inhibitor, single point |
| `Clc1ccc2c(c1)C(N1CCNCC1)=Nc1ccccc1O2` | CP252 | 15.85 | inhibitor, single point |
| `Clc1ccc2c(c1)C(N1CCNCC1)=Nc1ccccc1O2` | CP335 | 19.01 | inhibitor, single point |
| `Clc1ccc2c(c1)C(N1CCNCC1)=Nc1ccccc1O2` | CP191 | 17.78 | inhibitor, single point |
| `Clc1ccc2c(c1)C(N1CCNCC1)=Nc1ccccc1O2` | DFO2036 | 10 | inhibitor, single point |
| `Clc1ccc2c(c1)C(N1CCNCC1)=Nc1ccccc1O2` | ATS189 | 17.78 | inhibitor, single point |
| `Clc1ccc2c(c1)C(N1CCNCC1)=Nc1ccccc1O2` | PC15 | 11.22 | inhibitor, single point |
| `Clc1ccc2c(c1)C(N1CCNCC1)=Nc1ccccc1O2` | DIV17 | 10.69 | inhibitor, partial curve, poor fit |
| `C[C@@H](Cc1ccccc1)NCCC(c1ccccc1)c1ccccc1` | 3D7 | 10 | inhibitor, single point |
| `C[C@@H](Cc1ccccc1)NCCC(c1ccccc1)c1ccccc1` | CP265 | 6.31 | inhibitor, single point |
| `C[C@@H](Cc1ccccc1)NCCC(c1ccccc1)c1ccccc1` | PC26 | 7.208 | inhibitor, single point |
| `C[C@@H](Cc1ccccc1)NCCC(c1ccccc1)c1ccccc1` | CP185 | 3.162 | inhibitor, single point |
| `C[C@@H](Cc1ccccc1)NCCC(c1ccccc1)c1ccccc1` | CP286 | 3.548 | inhibitor, partial curve |
| `C[C@@H](Cc1ccccc1)NCCC(c1ccccc1)c1ccccc1` | CP269 | 5.726 | inhibitor, partial curve, poor fit |
| `C[C@@H](Cc1ccccc1)NCCC(c1ccccc1)c1ccccc1` | N140 | 3.162 | inhibitor, partial curve |
| `C[C@@H](Cc1ccccc1)NCCC(c1ccccc1)c1ccccc1` | SC27B | 3.548 | inhibitor, single point |
| `C[C@@H](Cc1ccccc1)NCCC(c1ccccc1)c1ccccc1` | CP266 | 8.087 | inhibitor, partial curve, poor fit |

For reference, 4 entries once more:

structure,setting,fitted potency (µM),curve
Clc1ccc2c(c1)C(N1CCNCC1)=Nc1ccccc1O2,7G8,10,"inhibitor, single point"
Clc1ccc2c(c1)C(N1CCNCC1)=Nc1ccccc1O2,CP252,15.85,"inhibitor, single point"
Clc1ccc2c(c1)C(N1CCNCC1)=Nc1ccccc1O2,P94_40,11.22,"inhibitor, single point"
Clc1ccc2c(c1)C(N1CCNCC1)=Nc1ccccc1O2,CP238,11.22,"inhibitor, single point"

The results are deposited in PubChem (AID504749; NCATS, 2011).